Here are results for one sequence from paper PMC5785985.

The chains behind the UniProt entries cited, without tags or fusion partners. Residues count along the entry.
UniProt P27695, 44-318 C138A: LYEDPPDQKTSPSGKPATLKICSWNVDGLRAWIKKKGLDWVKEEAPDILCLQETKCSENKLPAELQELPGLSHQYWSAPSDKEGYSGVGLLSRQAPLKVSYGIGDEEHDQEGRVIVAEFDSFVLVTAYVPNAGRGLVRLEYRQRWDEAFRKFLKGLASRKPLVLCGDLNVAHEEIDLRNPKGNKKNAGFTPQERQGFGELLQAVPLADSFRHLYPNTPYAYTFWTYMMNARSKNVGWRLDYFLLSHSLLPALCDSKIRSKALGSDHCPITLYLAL

For at least one entry, the source does not settle the construct or the ends of the probe.

The target in this data set is APE1 (ΔAPE1 C138A) (Homo sapiens) (UniProt P27695). Nature of the data set: X-ray crystallography (2.3 Å). The conditions noted are these: 3'-phosphoglycolate on strand 2; 5'-phosphate on strand 3; Crystallization: 7-14% PEG 20K, 100 mM sodium citrate pH 5.0, 15% glycerol, 5 mM CaCl2, 20 °C; 0.56 mM DNA, 10-12 mg/ml APE1; data at 100 K; recombinant protein; residues 44-318.

As to “GGATCCGTCGATCGCATCAGC / GCTGATGCG / TCGACGGATCC [21-mer nicked duplex, 3'-phosphoglycolate]”, the binding result is reported as “binds”.
